Residue numbers refer to the chain shown, from its start. These are yes or no findings as the source states them, for the method shown. In cells and extracts the contact can be indirect. A result given as binding can be weak or reduced; the word gives no strength. For part of these data: Tags and fused reporters may be left off the sequences shown. Blank lines part the entries; values can stand above or below the binder they belong to.
What was measured:
[1] = biological target: GST-DIC (dynein intermediate chain fused to GST); assay: pull-down; ~1 μg GST-DIC on glutathione-Sepharose beads added to His-Snapin lysates, 3 hr at 4°C, with rising Aβ1-42 (from 0.2 μM), same amount of Snapin and DIC; immunoblot; only the target purified
GFP-DIC = assay: co-IP; 600 μg COS7 cell lysates, cells expressing WT hAPP or mutant hAPP^swe; TBS with 0.1% Triton X-100, overnight at 4°C, Protein A-Sepharose; immunoblot
[2] = biological target: GST-DIC (dynein intermediate chain fused to GST); assay: pull-down; ~1 μg GST-DIC on glutathione-Sepharose beads added to 2 mg light membrane fraction of mouse brain, with or without 2 μM oligomeric Aβ1-42, overnight at 4°C, washed with TBS; immunoblot; only the target purified

binding [1]: binds
B1: His-Snapin (protein, UniProt O95295 1-136)
chain: MAGAGSAAVSGAGTPVAGPTGRDLFAEGLLEFLRPAVQQLDSHVHAVRESQVELREQIDNLATELCRINEDQKVALDLDPYVKKLLNARRRVVLVNNILQNAQERLRRLNHSVAKETARRRAMLDSGIYPPGSPGK

binding (GFP-DIC): binds
B2: Snapin (expressed in COS7 cells) (protein, UniProt O95295 1-136)
chain: B1 chain

binding [2]: binds
B3: Snapin, endogenous, on late endosomes/amphisomes of mouse brain light membrane fraction (protein, UniProt Q9Z266 1-136)
chain: B1 chain with G3A, I128V, G135S
